Experimental data: patent publication US7329638B2, “Drug delivery compositions” (priority 2003, dated 2008)

Tested on: MCF7 cells
Experiment: MTT cytotoxicity in doxorubicin sensitive MCF7 cells
Assay type: cell-based
Conditions: Homo sapiens, MCF7, 48 hrs exposure, without verapamil
Description: In some embodiments, monolayer doxorubicin sensitive (MCF7) and resistant (MCF7/ADR) cells were then exposed to either doxorubicin or TAT-Dox conjugates at various concentrations (up to 100 μM) for 48 hrs in the presence or absence of 10 μM verapamil. Cell viability was measured by MTT assay. […] Verapamil, a P-glycoprotein inhibitor, was able to restore most of the cytotoxic activities of free doxorubicin.

COc1cccc2c1C(=O)c1c(O)c3c(c(O)c1C2=O)C[C@@](O)(C(=O)CO)C[C@@H]3O[C@H]1C[C@H](N)[C@H](O)[C@H](C)O1 [Dox, doxorubicin] was tested, and the IC50 was 250 nM.
